HELM strings list residues between dots; [ac] is acetyl, [am] amide, other brackets name non-standard units.
Test: general procedure: Boc solid-phase peptide synthesis; Boc-Gly-resin; p-nitrophenyl ester; DCC/HOBT for 8+1 solution coupling
Conditions: for cyclisation yield: cyclisation step; for isolated yield / crude mass / isolated mass: whole synthesis; for step yield: coupling step

Which cyclisation yield does the source give for “PEPTIDE1{[Pmp].[Tyr(Me)].F.Q.N.C.P.R.G.[NHBu]}$PEPTIDE1,PEPTIDE1,1:R3-6:R3$$$V2.0” here?
Its cyclisation yield is 48.3%.

Which results are given for “beta-(S-Benzylmercapto)-beta,beta-cyclopentamethylenepropionyl-Tyr(Bzl)-Phe-Gln-Asn-Cys(Bzl)-Pro-Arg(Tos)-Gly-NH2”?
isolated yield (based on initial Gly content on the resin, scale 0.5 mmol): 62.4%; crude mass (scale 0.5 mmol): 723 mg; isolated mass (scale 0.5 mmol): 488 mg

With “PEPTIDE1{[d(CH2)5].[Tyr(Me)].F.Q.N.C.P.R.A.[am]}$PEPTIDE1,PEPTIDE1,1:R3-6:R3$$$V2.0” as the substance, how does the step yield read?
Its step yield is 84.2%.

What does the source list for “beta-(S-Benzylmercapto)-beta,beta-cyclopentamethylenepropionyl-Tyr(Me)-Phe- Gln-Asn-Cys(Bzl)-Pro-Arg(Tos)-Gly-NH2”?
step yield: 77.3%; isolated yield (based upon initial glycine content of the resin, scale 0.4 mmol): 50.7%; crude mass (scale 0.4 mmol): 410 mg; isolated mass (scale 0.4 mmol): 302 mg

With “PEPTIDE1{[Pmp].[D-Tyr(Et)].F.V.N.C.P.R.G.[NHMe]}$PEPTIDE1,PEPTIDE1,1:R3-6:R3$$$V2.0” as the substance, how does the cyclisation yield read?
Its cyclisation yield is 38.7%.
